# Laboratory results taken from PMC4855144.
# The chains behind the UniProt entries cited, without tags or fusion partners. Where a name states a change or a piece, a line headed by the entry shows the natural chain unless it says otherwise.
# UniProt P60953: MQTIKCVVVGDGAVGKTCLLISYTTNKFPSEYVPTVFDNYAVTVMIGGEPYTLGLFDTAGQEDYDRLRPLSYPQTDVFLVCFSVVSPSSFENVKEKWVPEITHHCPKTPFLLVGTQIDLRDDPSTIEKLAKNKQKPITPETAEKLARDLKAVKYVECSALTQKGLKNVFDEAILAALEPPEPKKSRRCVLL
# UniProt O00401: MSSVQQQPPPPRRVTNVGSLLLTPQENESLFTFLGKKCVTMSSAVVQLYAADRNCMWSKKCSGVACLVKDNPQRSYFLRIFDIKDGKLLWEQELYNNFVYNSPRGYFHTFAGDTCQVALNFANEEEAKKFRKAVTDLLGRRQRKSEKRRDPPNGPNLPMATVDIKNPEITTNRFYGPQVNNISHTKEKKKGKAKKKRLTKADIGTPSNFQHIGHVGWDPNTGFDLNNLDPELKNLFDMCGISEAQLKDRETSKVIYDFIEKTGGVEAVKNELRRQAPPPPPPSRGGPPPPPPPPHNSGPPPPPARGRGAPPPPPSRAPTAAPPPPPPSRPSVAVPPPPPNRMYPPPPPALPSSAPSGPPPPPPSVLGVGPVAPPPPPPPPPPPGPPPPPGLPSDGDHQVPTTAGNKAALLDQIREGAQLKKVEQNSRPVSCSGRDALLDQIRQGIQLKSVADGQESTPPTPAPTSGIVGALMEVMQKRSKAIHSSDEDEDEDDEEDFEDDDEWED
# These are yes or no findings as the source states them, for the method shown. Binding seen in cells or lysates may run through a third protein. Some entries that bind do so weakly or less than the wild type. For some of these results: Where a sequence is shown, tags or fusion partners need not be part of it.
# Assays:
# [1] = target: T1, GFP-CRN7 WT (human Coronin7, full length, GFP on its N-terminus) (human) (UniProt P57737); experiment: co-IP; lysates of HEK293T cells transiently co-expressing GFP-CRN7 (or GFP) and Myc-tagged Cdc42 CA or DN; GFP microbeads; Cdc42 detected with anti-Myc mAb 9E10
# T1 sequence: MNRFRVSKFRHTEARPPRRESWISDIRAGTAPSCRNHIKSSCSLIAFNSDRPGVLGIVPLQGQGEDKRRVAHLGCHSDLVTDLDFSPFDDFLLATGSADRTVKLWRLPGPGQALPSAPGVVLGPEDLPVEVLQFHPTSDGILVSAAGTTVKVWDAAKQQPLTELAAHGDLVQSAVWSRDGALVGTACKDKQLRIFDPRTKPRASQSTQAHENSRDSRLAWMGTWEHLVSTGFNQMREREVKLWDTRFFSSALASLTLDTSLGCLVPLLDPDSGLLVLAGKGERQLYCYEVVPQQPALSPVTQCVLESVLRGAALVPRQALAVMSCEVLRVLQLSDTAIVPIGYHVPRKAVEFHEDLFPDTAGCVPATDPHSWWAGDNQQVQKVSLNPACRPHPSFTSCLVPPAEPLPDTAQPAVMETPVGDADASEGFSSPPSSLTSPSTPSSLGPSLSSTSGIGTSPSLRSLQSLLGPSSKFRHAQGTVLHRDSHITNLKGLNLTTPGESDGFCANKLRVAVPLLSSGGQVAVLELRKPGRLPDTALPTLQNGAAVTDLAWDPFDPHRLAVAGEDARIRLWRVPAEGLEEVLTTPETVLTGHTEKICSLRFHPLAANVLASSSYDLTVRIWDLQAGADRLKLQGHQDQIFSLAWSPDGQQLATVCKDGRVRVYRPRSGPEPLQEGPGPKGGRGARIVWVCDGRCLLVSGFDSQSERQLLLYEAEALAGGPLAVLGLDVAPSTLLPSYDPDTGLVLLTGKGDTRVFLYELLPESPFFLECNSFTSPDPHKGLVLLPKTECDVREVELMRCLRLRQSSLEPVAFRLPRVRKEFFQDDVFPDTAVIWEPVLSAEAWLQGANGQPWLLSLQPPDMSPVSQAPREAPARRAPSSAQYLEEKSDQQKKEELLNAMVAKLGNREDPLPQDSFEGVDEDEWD
# [2] = target: T1, GFP-CRN7 WT (human Coronin7, full length, GFP on its N-terminus) (human); experiment: co-IP; GFP microbeads precipitate GFP-CRN7 or its NT and CT fragments from HEK293T cell extracts; endogenous N-WASP detected with rabbit polyclonal anti-N-WASP
# [3] = target: GST-Cdc42 constitutively active (CA/Q61L), preloaded with GTPγS (UniProt P60953); experiment: pull-down; Glutathione-Sepharose beads coated with GST alone or GST-GTPase fusions pre-loaded with GDP (DN) or GTPγS (CA), incubated with lysates of HEK293T cells expressing GFP-CRN7 WT or CRIB mutants; blot with GFP mAb K3-184-2 or anti-N-WASP; ImageJ quantification, input set at 100%; only the target purified
# [4] = target: GST-Cdc42 dominant negative (DN/T17N), preloaded with GDP (UniProt P60953); experiment: as above
binding [1],binding [2],binding [3],binding [4],Substance
binds,,,,Myc-tagged Cdc42 DN (T17N) (from UniProt P60953 1-191) (enzyme)
,binds,binds,no binding,endogenous N-WASP (neural WASP) of HEK293T cells (from UniProt O00401 1-505)
